In paper doi:10.1101/2024.11.04.621965 one finds binding data, which are given here for 5 molecules.

Common to all, as to test: two-hybrid
For assay [1], the target named is T1, Arabidopsis NUF2 (Y2H fusion) (Arabidopsis thaliana) (UniProt Q8RXJ0).
T1 sequence: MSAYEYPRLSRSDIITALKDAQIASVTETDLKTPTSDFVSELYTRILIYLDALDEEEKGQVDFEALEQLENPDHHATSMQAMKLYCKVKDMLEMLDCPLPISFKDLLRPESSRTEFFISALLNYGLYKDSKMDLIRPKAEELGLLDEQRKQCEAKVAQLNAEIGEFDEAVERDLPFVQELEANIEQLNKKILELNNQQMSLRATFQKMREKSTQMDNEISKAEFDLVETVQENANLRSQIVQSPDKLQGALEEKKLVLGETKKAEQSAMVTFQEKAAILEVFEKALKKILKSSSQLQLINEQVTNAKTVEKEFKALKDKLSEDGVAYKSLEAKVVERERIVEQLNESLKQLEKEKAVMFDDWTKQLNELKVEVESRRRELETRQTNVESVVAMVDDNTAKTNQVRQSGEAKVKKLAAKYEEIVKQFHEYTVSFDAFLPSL

Assay [2] concerns the target T2, Arabidopsis NDC80 (Y2H fusion) (Arabidopsis thaliana) (UniProt Q9M1G5).
T2 sequence: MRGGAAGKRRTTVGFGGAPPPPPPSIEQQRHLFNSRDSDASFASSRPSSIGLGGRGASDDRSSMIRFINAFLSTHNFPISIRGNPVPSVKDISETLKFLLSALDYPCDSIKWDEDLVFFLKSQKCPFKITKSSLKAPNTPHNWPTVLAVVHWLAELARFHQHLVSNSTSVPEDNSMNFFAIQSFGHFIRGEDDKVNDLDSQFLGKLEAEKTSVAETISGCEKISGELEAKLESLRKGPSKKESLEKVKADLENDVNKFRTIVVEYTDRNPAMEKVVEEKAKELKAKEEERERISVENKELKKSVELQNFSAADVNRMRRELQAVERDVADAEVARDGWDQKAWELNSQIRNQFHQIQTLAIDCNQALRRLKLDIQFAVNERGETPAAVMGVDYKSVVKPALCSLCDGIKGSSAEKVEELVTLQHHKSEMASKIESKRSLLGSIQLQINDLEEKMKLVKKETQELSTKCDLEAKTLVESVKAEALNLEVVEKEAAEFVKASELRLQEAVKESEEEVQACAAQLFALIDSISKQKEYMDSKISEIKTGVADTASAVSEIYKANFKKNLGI

In assay [3] the target is Arabidopsis MAD1 (Y2H fusion) (Arabidopsis thaliana) (UniProt Q9LTY1).
In assay [4] the target is T3, Arabidopsis MAD2 (Y2H fusion) (Arabidopsis thaliana) (UniProt Q9LU93).
T3 sequence: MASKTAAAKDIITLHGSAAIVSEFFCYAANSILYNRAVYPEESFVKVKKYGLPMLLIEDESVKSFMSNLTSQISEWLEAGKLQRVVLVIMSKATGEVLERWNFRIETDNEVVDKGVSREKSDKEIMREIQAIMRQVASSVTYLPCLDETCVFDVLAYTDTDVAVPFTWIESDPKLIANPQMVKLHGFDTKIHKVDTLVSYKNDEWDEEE

Assay [5] addresses Arabidopsis MPS1 (Y2H fusion) (Arabidopsis thaliana) (UniProt Q84VX4).
Assay [6] addresses T4, Arabidopsis MIS12 (Y2H fusion) (Arabidopsis thaliana) (UniProt Q2V0Z5).
T4 sequence: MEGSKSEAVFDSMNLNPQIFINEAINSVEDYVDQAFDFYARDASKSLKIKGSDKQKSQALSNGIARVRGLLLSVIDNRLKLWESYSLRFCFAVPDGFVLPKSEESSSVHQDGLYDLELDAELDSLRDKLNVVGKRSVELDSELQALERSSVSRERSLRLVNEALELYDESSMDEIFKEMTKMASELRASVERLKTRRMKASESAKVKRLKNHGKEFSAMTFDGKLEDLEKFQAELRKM

These are yes or no findings as the source states them, for the method shown. Some results given as binding are weak or reduced against the parent protein; the word gives no strength. Tags and fused reporters may be left off the sequences shown.

B1: Arabidopsis NUF2 (Y2H fusion) (protein, UniProt Q8RXJ0 1-440)
chain: T1 sequence
As to B1, in assay [1], the binding result is “binds”.

B2: Arabidopsis MAD1 (Y2H fusion) (protein, UniProt Q9LTY1 1-726)
chain: MILRTPQPKRLRSDAGESPFPTGATGSGNQLIIYEDSPLPAPAPLQTSHDHSADQHLCTYQCRQMVKADVLDALSTAEKQVEESKTKLQTLNANFTEADAERKHFRDKFLYSEQELAAAKAREKMLQEQLLMEINNSQERYTKELQSCHELEVKLQNEMNLRKKAESSAATAEEKAKLLEDKLTQLSGSVDREKKRLNNDIAQLGKEAKLSVARIGADLERMQCRAQNAETESNLLRSQLEHLKLIFDECLQEKTEVDKKLSSFTSEAASSSDNSVLVKHLQEELKRYEAEVREARKLKSRHLDAELLNVNLLEEQSRRERAESELSKFHDLQLSMEKLENELSSWKSLLNDIPGVSCPDDIVMRFSVLQNEVVQSTMKIGEASTRIKQLEETLEAIQLGRQNAVSEAALAKEKSEALKTDVKRIEVMLTLVTEEKEQLKAVVNELRKSNSEGSVSGAADGALIQGFESSLAKKENYIKDLEQDLNQLKDVNNRQRTEIELLNEKLVDEARRNKSLERDSDRLRSEISLLESKLGHGDYSAANTRVLRMVNTLGVENEAKQTIEALQAELQKTKERLQAVEELKSQSGDAGKLVDSHITGKIAQLKEQNATLEKREERYKTVFADRISVFRRACCELFGYKIVMDEHQRPNGIPVTRFTLQSIYAQSDDEKLEFEYESGNTSILNNEYASQGDIAKQIEIFIRKFNSIPAFTANLTMESFNRRTLY
With B2, the binding result in assay [2], in assay [3], in assay [1] and in assay [4] was “binds” each time.

B3: Arabidopsis MPS1 (Y2H fusion) (enzyme, UniProt Q84VX4 1-777)
chain: MDREDNLPVQPDKPPKSLVRPILNLETTSSSSSSSSSSPELLRHLQAAFKRHRPLSKMQTTSIGPRRSVAPQRQASRNTRLVTAEGQRSQDVVTLSQSLAANTLTQDTTNNLAITSVAGESASITQPTVSEHFNPSDRQMDFGKSAVTSLESNLDVQRKSQSLIGTSQDMEWDATNQAEASHLDACIGSKHQNLPSVDSEVSLKSEYKDSSSLAKIQGQLGEFPNFLNQPRTRCSAVGSSWATTTLIHSSSAPMLNATTHVSRSYVEADSNANPHAVQSQGNLPSCCPSSKVSNILHPNKDATASEMPASTNDPEVRVKETDTSKQQQITTGLEAPVGSSIYGSDGQANARLPEELHTSVSSQPQKSDKHEKVASSKGPSAPRKRNYDPDLFFKVNGKLYQRLGKIGSGGSSEVHKVISSDCTIYALKKIKLKGRDYATAYGFCQEIGYLKKLKGKTNIIQLIDYEVTDKTLLQEVLNGTMSNKDGRVKEDGFIYMVLEYGEIDLAHMLSQKWREIEGSDRTIDENWLRFYWQQILQAVNTIHEERIVHSDLKPANFLLVRGFLKLIDFGIAKAINSDTTNIQRDSQVGTLSYMSPEAFMCNESDENGNTIKCGRPSDIWSLGCILYQMVYGRTPFADYKTFWAKFKVITDPNHEITYNQLSNPWLIDLMKKCLAWDRNQRWRIPELLQHPFLAPPIPHEPQVKTIKLFSLIAESCGSDDDKANSMISQLEQLLSNPAPLPRNDVLDSRDQNQQLLSRVSELCIQLQDRLQGLEGEN
Turning to B3, the binding result is reported as “binds” in assay [5] and “no binding” in assay [2].

B4: Arabidopsis MIS12 (Y2H fusion) (protein, UniProt Q2V0Z5 1-238)
chain: T4 sequence
As for B4, in assay [6], the binding result is “binds”.

B5: Arabidopsis NDC80 (Y2H fusion) (protein, UniProt Q9M1G5 1-568)
chain: T2 sequence
Turning to B5, the binding entry in assay [2] and in assay [6] was “binds” throughout.
